# For some assays here: At least one read-out could not be matched to a standard name with certainty. Some results were stated once for a whole list of compounds, not compound by compound.
# What was measured:
# [1] = test system: I. scapularis nymphs, X. cheopis adults, and Ae. aegypti adults; experiment: Initial screening against all three arthropods (Example 9); type: in vivo; details: 24 hours exposure, ticks, fleas, mosquitoes
# Procedure: Valencene-13-aldehyde was prepared by oxidation of valencene with SeO2. […] Commercial samples of nootkatone for comparison were obtained from Bedoukian Research, Inc., Danbury, Conn. (semi-synthetic crystalline) and Frutarom, Inc. N.J. (from grapefruit oil). […] The compounds identified by an asterisk—nos.
# I. scapularis nymphs = experiment: Tick bioassay, modified disposable pipette method, treated vials (Example 9); type: in vivo, Ixodes scapularis; details: 24 h exposure; 95% CI in parentheses
# Procedure: Tick Colonies. […] There was no known pesticide used at this location. Ticks were maintained at 21° C., 90% RH, and received a 16:8 h (light:dark) cycle as described in […]. Med. […] Tick and Flea Bioassays. […] A control treated with acetone only was run with each series. Tick and flea susceptibility was evaluated using a modified disposable pipette method. See, Barnard, D. R., et al., J. Econ. […] Three to 4 holes were made in the plastic cap to allow for air exchange. Nymphal ticks and adult fleas were then placed directly into the vials using forceps. Vials containing ticks or fleas were placed in desiccators for 24 h at 21° C. and 90% RH. […] For each time point, if ticks were incapable of movement, maintaining normal posture, leg coordination, ability to right themselves, or any signs of life, they were considered moribund or dead.
# X. cheopis adults = experiment: Flea bioassay, treated vials (Example 9); type: in vivo; details: 24 h exposure; 95% CI in parentheses
# Procedure: Flea Colonies. Adult X. cheopis fleas (1–3 wk old) were obtained from a colony founded more than eight years ago using adults received from Tom Schwan, Rocky Mountain Laboratories, Hamilton, Mont. The area from which these original adult fleas were obtained, and the resulting colony, have no known histories of pesticide exposure.
# Tick and Flea Bioassays. Concentrations of the compounds were prepared by 2-fold serial dilutions of a 0.5% (wt:vol) solution of the extracts in acetone. […] A control treated with acetone only was run with each series. Tick and flea susceptibility was evaluated using a modified disposable pipette method. See, Barnard, D. R., et al., J. Econ. Entomol.
# The inner surface of 2-dram friction cap vials were treated with the compound/acetone solution, or acetone only as a control, and left to air-dry overnight. Three to 4 holes were made in the plastic cap to allow for air exchange. Nymphal ticks and adult fleas were then placed directly into the vials using forceps. Vials containing ticks or fleas were placed in desiccators for 24 h at 21° C. and 90% RH. Morbidity and mortality was recorded at 1, 2, 4, 8, and 24 h after initial exposure.
# Ae. aegypti adults = experiment: Mosquito bottle bioassay (Example 9); type: in vivo; details: 24 h exposure; 95% CI in parentheses
# Procedure: Mosquito Colonies. Aedes aegypti adult mosquitoes were obtained from an existing colony at the Centers for Disease Control and Prevention (CDC), Division of Vector-Borne Infectious Diseases (DVBID), Fort Collins, Colo. This colony has been maintained for over fifteen years with no known history of exposure to pesticides. Mosquitoes were reared at 28° C., 85% RH, and a 14:10 h (light:dark) cycle. Larvae were grown in de-ionized water and fed ground liver powder solution ad libitum. Fourth instars were removed and placed in emergence cages, and adults were fed a 2% sucrose solution until assayed. Adults were exposed to test products at 4–7 d after emergence.
# Mosquit Bioassay. Adult mosquitoes were tested using the bottle bioassay method of Brogden, W. G., and McAllister, J. C., J. Am. Mosq. Control Assoc. 14:159–64 (1998), with minor modifications. Natural product extracts were two-fold serially diluted for a total of 8 concentrations ranging from 0.002% to 0.25% in 1.5 ml of acetone. Individual dilutions were added to 250 ml Wheaton glass bottles and capped. Bottles were manipulated to evenly coat all inner surfaces. The caps were removed and bottles were allowed to air-dry overnight. Once bottles were completely dry, 10–50 adult mosquitoes were aspirated into the bottles. Mosquitoes were held in the bottles for 24 h at 23° C. and 85% RH. Morbidity and mortality were recorded at 15, 30, 45, and 60 min and 24 hour intervals. One bottle for each replicate was treated with acetone only and served as a control. The dose-mortality data was evaluated with probit analysis, using the LdP Line software, to determine LC50 and LC90 values.
SMILES,pesticidal activity in initial screening ([1]; listed as compound 1),pesticidal activity in initial screening ([1]; listed as compound 2),LC90 (I. scapularis nymphs),LC90 (X. cheopis adults),LC90 (Ae. aegypti adults)
"CC1=CCC2C(C1)C2(C)C (centres unmarked) [Compound 1, 3-Carene]",ineffective,,,,
"CC1=CCC(O)(C(C)C)CC1 (centres unmarked) [Compound 2, Terpinen-4-ol]",,ineffective,,,
"C=C(C)[C@@H]1CCC2=CC(=O)C[C@@H](C)[C@]2(C)C1 [Compound 7, Nootkatone]",,,"0.0055 (0.0046–0.0073) percent concentration, wt:vol","0.019 (0.015–0.031) percent concentration, wt:vol","0.0092 percent concentration, wt:vol"
"C=C(C)[C@@H]1CCC2=CC(=O)C[C@@H](C)[C@]2(C)C1 [Compound 8, Nootkatone]",,,"0.015 (0.012–0.021) percent concentration, wt:vol","0.008 (0.0059–0.014) percent concentration, wt:vol","0.0087 (0.0072–0.011) percent concentration, wt:vol"
"C=C(C)[C@@H]1CCC2=CC(=O)C[C@@H](C)[C@]2(C)C1 [Compound 9, Nootkatone]",,,"0.0087 (0.0069–0.012) percent concentration, wt:vol","0.018 (0.013–0.032) percent concentration, wt:vol","0.021 percent concentration, wt:vol"
